Data from BindingDB's records for patent US9144538 (The Procter & Gamble, 2015).

The chains behind the UniProt entries cited, without tags or fusion partners.
UniProt P08684, whole entry: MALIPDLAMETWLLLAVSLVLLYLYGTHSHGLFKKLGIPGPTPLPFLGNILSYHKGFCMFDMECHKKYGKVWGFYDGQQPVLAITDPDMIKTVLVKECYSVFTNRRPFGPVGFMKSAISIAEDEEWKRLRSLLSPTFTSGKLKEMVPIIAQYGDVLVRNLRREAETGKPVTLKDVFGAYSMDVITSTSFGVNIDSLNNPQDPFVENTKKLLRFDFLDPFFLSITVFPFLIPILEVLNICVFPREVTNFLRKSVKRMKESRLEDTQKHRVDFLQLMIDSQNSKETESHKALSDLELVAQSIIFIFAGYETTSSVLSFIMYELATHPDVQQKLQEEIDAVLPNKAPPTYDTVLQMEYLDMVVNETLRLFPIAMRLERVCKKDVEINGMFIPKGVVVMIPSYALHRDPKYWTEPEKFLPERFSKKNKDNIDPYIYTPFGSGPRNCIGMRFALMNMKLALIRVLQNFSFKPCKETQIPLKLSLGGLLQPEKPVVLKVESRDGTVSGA

Molecular target: CYP3A4 (Homo sapiens, UniProt P08684)
Assay: In vitro CYP3A4 Inhibition Assay
Text: Cytochrome P450 is a large and diverse group of enzymes that catalyze the oxidation of organic substances. […] Applicant evaluated the potential RAMBA activity of several azoles using pig liver microsomes, a rich source of CYP activity, comprising many different CYP 450 isoforms. […] As understanding in this area has progressed, a more specific CYP inhibition assay can be used to provide better predictivity of activity in human skin. Nevertheless, this assay may still be used as a general predictor of overall CYP activity.

Clc1ccc(CO[C@@H](Cn2ccnc2)c2ccc(Cl)cc2Cl)c(Cl)c1 [US9144538, Miconazole Nitrate]
IC50: 5 µM
